Some entries repeat one wording, which the source may state once for all of them.

The results in this text go back to US9290516B2, “Benzobis(thiadiazole) derivative and organic electronics device comprising same” (Ube Industries, Ltd., priority 2012, dated 2016).

Series [1] is described as follows: Thin Film Formation Experiment using Coating Method. The settings on record: 0.2-μm filtered, dropped onto silicon wafer, solvent volatilized.
Series [2] is described as follows: Organic TFT on HMDS-modified substrate, vacuum-deposited semiconductor layer. The settings on record: for electrical properties of the organic TFT (n-type): drain voltage 50 to 100 V as in each example.
Series [3] in a line: Organic TFT on PS substrate, vacuum-deposited semiconductor layer. Particulars: vacuum deposition; for electrical properties of the organic TFT (n-type): drain voltage 50 to 100 V as in each example.
Series [4] is described as follows: Organic TFT on PS substrate, spin-coated semiconductor layer. The settings on record: drain voltage 100 V; for field-effect mobility: spin-coating from 0.3 wt % 1,2-dichlorobenzene solution, heated 180° C. 35 minutes; for electrical properties of the organic TFT (n-type): spin-coating.
Where [5] appears, read: drain voltage 50 V, left in the atmosphere 13 days.
The mark [6] stands for this setting: drain voltage 80 V, 28 days in total in the atmosphere.
The mark [7] stands for this setting: drain voltage 80 V, 56 days in total in the atmosphere.
The mark [8] stands for this setting: drain voltage 80 V, 124 days in total in the atmosphere.
[9] abbreviates: drain voltage 80 V, same TFT after 13 days in the atmosphere.
Where [10] appears, read: drain voltage 100 V, left in the atmosphere 7 days.

On to `FC(F)(F)Oc1ccc(-c2ccc(-c3c4c(c(-c5ccc(-c6ccc(OC(F)(F)F)cc6)s5)c5nsnc35)N=S=N4)s2)cc1` [BBT-(1)], for which the “formation of a thin film” value in series [1] (1,2-dichlorobenzene solution) and in series [1] (mesitylene solution) was “confirmed” in each case. Besides, the field-effect mobility is on record as 4.1×10^−1 cm^2/Vs in series [2] (drain voltage 50 V, initial); 8.0×10^−1 cm^2/Vs in series [2] (setting [5]); 1.1 cm^2/Vs in series [2] (setting [6]); 9.7×10^−1 cm^2/Vs in series [2] (setting [7]); 9.7×10^−1 cm^2/Vs in series [2] (setting [8]); 1.0 cm^2/Vs in series [2] (setting [9]). The field-effect mobility is listed as 5.1×10^−1 cm^2/Vs in series [3] (drain voltage 50 V, initial); 8.2×10^−1 cm^2/Vs in series [3] (setting [5]); 1.6 cm^2/Vs in series [3] (setting [6]); 1.6 cm^2/Vs in series [3] (setting [7]); 1.5 cm^2/Vs in series [3] (setting [8]); 1.6 cm^2/Vs in series [3] (setting [9]). Besides, the “electrical properties of the organic TFT (n-type)” value (“electrical properties” below) in series [2] and in series [3] was “had the properties of n-type semiconductor” in each case.
Take `FC(F)(F)Oc1cccc(-c2ccc(-c3c4c(c(-c5ccc(-c6cccc(OC(F)(F)F)c6)s5)c5nsnc35)N=S=N4)s2)c1` [BBT-(2)]: the “electrical properties” value in series [2], in series [4] and in series [3] was “had the properties of n-type semiconductor” each time. Moreover, the field-effect mobility is listed as 5.6×10^−1 cm^2/Vs in series [2] (drain voltage 100 V, initial); 2.6×10^−2 cm^2/Vs in series [4]; 5.3×10^−1 cm^2/Vs in series [3] (drain voltage 100 V, initial).
Take `CCCCCCCCCCC(F)(F)c1ccc(-c2ccc(-c3c4c(c(-c5ccc(-c6ccc(C(F)(F)CCCCCCCCCC)cc6)s5)c5nsnc35)N=S=N4)s2)cc1` [BBT-(5)]: in series [4], the field-effect mobility is 1.0×10^−1 cm^2/Vs and the “electrical properties” value is on record as “had the properties of n-type semiconductor”.
As for `CC(F)(F)Oc1ccc(-c2ccc(-c3c4c(c(-c5ccc(-c6ccc(OC(C)(F)F)cc6)s5)c5nsnc35)N=S=N4)s2)cc1` [BBT-(6)], the “electrical properties” value in series [2] and in series [3] was “had the properties of n-type semiconductor” throughout. The field-effect mobility in series [2] (drain voltage 100 V, initial) is 1.1 cm^2/Vs; in series [2] (setting [10]), 1.6 cm^2/Vs; in series [3] (drain voltage 100 V, initial), 1.5 cm^2/Vs; in series [3] (setting [10]), 1.8 cm^2/Vs.
For the compound `FC(F)(F)c1ccc(-c2ccc(-c3c4c(c(-c5ccc(-c6ccc(C(F)(F)F)cc6)s5)c5nsnc35)N=S=N4)s2)cc1` [BBT-(11), reference compound], the “formation of a thin film” value in series [1] (1,2-dichlorobenzene solution) and in series [1] (mesitylene solution) was “not confirmed” each time. For the same compound, the field-effect mobility in series [2] (drain voltage 50 V, initial) was 4.0×10^−1 cm^2/Vs; in series [2] (setting [5]), 4.5×10^−1 cm^2/Vs; in series [3] (drain voltage 50 V, initial), 4.0×10^−1 cm^2/Vs; in series [3] (setting [5]) it was 3.0×10^−1 cm^2/Vs. Moreover, the “electrical properties” value in series [2] and in series [3] was “had the properties of n-type semiconductor” throughout.
In the case of `Cc1ccc(-c2ccc(-c3c4c(c(-c5ccc(-c6ccc(C)cc6)s5)c5nsnc35)N=S=N4)s2)cc1` [BBT-(12), reference compound], the “electrical properties” value in series [2] is listed as “did not have the properties of n-type transistor”; in series [3], “had the properties of n-type semiconductor”. The field-effect mobility in series [3] (drain voltage 80 V, initial) is reported as 4.9×10^−3 cm^2/Vs.
Consider `COc1ccc(-c2ccc(-c3c4c(c(-c5ccc(-c6ccc(OC)cc6)s5)c5nsnc35)N=S=N4)s2)cc1` [BBT-(13), reference compound], for which the “electrical properties” value in series [2] and in series [3] was “had the properties of n-type semiconductor” throughout. The field-effect mobility is 2.0×10^−4 cm^2/Vs in series [2] (drain voltage 80 V, initial) and 2.0×10^−4 cm^2/Vs in series [3] (drain voltage 80 V, initial).
In the case of `CCCCCCCCCc1ccc(-c2ccc(-c3c4c(c(-c5ccc(-c6ccc(CCCCCCCCC)cc6)s5)c5nsnc35)N=S=N4)s2)cc1` [BBT-(14), reference compound], the “electrical properties” value in series [4] is reported as “did not have the properties of n-type transistor”.
